According to article PMC10137900:
These are yes or no findings as the source states them, for the method shown. Some results given as binding are weak or reduced against the parent protein; the word gives no strength.

Protein sequences, listed by entry. Tags and fused reporters are not part of them. Lines headed by an entry give the natural chain unless they say otherwise; changes in a name come on top.
UniProt P28340: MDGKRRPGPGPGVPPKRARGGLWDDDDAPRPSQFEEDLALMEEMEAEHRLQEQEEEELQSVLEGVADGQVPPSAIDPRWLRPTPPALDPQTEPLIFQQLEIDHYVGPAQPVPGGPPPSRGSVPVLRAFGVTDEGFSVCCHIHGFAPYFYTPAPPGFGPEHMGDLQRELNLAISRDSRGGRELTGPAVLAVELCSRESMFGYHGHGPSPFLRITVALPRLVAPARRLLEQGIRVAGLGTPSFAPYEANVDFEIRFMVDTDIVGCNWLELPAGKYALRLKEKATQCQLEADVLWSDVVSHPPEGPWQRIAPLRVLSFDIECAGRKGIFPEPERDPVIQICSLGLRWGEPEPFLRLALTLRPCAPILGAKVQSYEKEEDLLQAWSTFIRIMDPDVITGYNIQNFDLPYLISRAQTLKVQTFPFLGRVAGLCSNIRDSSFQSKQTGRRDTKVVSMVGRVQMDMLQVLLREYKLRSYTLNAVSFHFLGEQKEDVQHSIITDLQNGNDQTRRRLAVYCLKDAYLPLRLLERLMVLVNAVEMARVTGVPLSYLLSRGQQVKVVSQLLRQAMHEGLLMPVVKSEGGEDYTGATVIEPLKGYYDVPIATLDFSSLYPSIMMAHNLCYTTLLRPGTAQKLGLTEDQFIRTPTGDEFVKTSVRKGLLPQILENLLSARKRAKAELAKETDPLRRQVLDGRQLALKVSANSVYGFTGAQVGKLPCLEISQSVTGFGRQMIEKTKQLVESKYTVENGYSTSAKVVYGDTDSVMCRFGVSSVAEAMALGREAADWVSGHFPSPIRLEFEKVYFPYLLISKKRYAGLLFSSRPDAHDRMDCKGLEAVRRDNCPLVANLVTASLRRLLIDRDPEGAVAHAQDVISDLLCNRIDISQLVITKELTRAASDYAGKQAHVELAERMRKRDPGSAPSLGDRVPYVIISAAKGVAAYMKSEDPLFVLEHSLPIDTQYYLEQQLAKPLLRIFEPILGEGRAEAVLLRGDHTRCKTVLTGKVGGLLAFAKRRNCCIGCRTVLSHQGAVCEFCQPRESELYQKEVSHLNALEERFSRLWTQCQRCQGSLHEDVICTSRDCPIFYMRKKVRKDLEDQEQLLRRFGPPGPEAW
UniProt P49005: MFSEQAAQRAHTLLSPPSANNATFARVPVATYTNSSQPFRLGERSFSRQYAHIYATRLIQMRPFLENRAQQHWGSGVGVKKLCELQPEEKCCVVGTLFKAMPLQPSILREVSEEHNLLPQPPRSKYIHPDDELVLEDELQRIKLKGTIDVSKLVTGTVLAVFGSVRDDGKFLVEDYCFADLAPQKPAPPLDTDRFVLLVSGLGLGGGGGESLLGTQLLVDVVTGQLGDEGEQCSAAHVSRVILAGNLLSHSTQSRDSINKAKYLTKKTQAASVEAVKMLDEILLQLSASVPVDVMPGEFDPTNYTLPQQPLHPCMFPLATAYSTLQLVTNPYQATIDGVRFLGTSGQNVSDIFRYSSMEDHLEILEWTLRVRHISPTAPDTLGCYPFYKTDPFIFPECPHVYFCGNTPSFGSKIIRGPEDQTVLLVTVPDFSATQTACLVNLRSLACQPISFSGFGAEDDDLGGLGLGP

B1: Human DNA polymerase δ subunit p66 (protein, UniProt Q15054 1-466)
chain: MADQLYLENIDEFVTDQNKIVTYKWLSYTLGVHVNQAKQMLYDYVERKRKENSGAQLHVTYLVSGSLIQNGHSCHKVAVVREDKLEAVKSKLAVTASIHVYSIQKAMLKDSGPLFNTDYDILKSNLQNCSKFSAIQCAAAVPRAPAESSSSSKKFEQSHLHMSSETQANNELTTNGHGPPASKQVSQQPKGIMGMFASKAAAKTQETNKETKTEAKEVTNASAAGNKAPGKGNMMSNFFGKAAMNKFKVNLDSEQAVKEEKIVEQPTVSVTEPKLATPAGLKKSSKKAEPVKVLQKEKKRGKRVALSDDETKETENMRKKRRRIKLPESDSSEDEVFPDSPGAYEAESPSPPPPPSPPLEPVPKTEPEPPSVKSSSGENKRKRKRVLKSKTYLDGEGCIVTEKVYESESCTDSEEELNMKTSSVHRPPAMTVKKEPREERKGPKKGTAALGKANRQVSITGFFQRK
B2: Human DNA polymerase δ subunit p12 (protein, UniProt Q9HCU8 1-107)
chain: MGRKRLITDSYPVVKRREGPAGHSKGELAPELGEEPQPRDEEEAELELLRQFDLAWQYGPCTGITRLQRWCRAKQMGLEPPPEVWQVLKTHPGDPRFQCSLWHLYPL

Molecular target: Human DNA polymerase δ catalytic subunit p125 (human) (UniProt P28340)
Test: SEC; four subunits co-expressed in E. coli; complex eluted from Ni-NTA, dialysed and concentrated, then run on an SEC column (Bio-Rad) at 0.5 mL/min in 40 mM HEPES pH 7.5, 100 mM NaCl, 10% glycerol; both purified

binding, binds:
Human DNA polymerase δ subunit p50 (from UniProt P49005 1-469), B1, B2
